# Measurements taken from the supplement of paper PMC9135407.
# Where “and” joins values, the source holds several entries; their conditions need not be identical. Equal values may be shown once. Where a name gives a salt, the structure may show the parent alone. ± gives the standard deviation of the averaged measurements. The list shows a part of the results. Baselines shift from plate to plate; read single values as rough.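 Culture-activated primary human stellate myofibroblasts, where regained lipid droplets signal inactivation. Value: share of Hoechst-counted cells above a per-plate Bodipy cutoff, in duplicate wells, with DMSO negative and nortriptyline positive controls on each plate. Hits: a control-normalized score above the plate's top-tenth-percentile nortriptyline wells, or one of a plate's three best wells. Final well concentrations are not given.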
# Tested on: primary human hepatic stellate cells (donor 1)
# Experiment: percent Bodipy-positive cells; higher = more lipid droplet accumulation
# Settings: 48 h
# [1] = library stock concentration: 80 uM
# [2] = library stock concentration: 400 uM
# [3] = library stock concentration: 2 mM
# [4] = library stock concentration: 10 mM
# [5] = library stock concentration: 1 mM
# [6] = library stock concentration: 3.33 mM
# [7] = library stock concentration: 6 mM
structure (smiles),measurement,setting,value
CN1CCN(C(c2ccccc2)c2ccc(Cl)cc2)CC1 (stereo not drawn) [Chlorcyclizine hydrochloride],percent Bodipy-positive cells,,48.9 ± 12%
same,percent Bodipy-positive cells,library stock concentration: 5.9 mM,25.2 ± 1.4%
CCOc1cc2ncc(C#N)c(Nc3ccc(OCc4ccccn4)c(Cl)c3)c2cc1NC(=O)/C=C/CN(C)C,percent Bodipy-positive cells,[1],6.46 ± 5.2%
same,percent Bodipy-positive cells,[2],7.47 ± 1.5%
same,percent Bodipy-positive cells,[3],25 ± 7.1%
same,percent Bodipy-positive cells,[4],20.9 ± 7.7%
Cc1cccc(Nc2cc(Cl)nc(SCC(=O)O)n2)c1C,percent Bodipy-positive cells,[5],7.74% and 22.3%
same,percent Bodipy-positive cells,[6],31.5 ± 5.9%
CCCCC[C@@H](O)/C=C/[C@H]1[C@H](C/C=C\CCCC(=O)O)C(=O)C[C@@H]1O [ent-Prostaglandin E2],percent Bodipy-positive cells,[5],7.2 ± 0.78%
"Nc1ncnc2c1ncn2[C@@H]1O[C@H](COP(=O)(O)CP(=O)(O)OP(=O)(O)O)[C@H](O)C1O (stereo partly drawn) [alpha,beta-Methylene adenosine 5'-triphosphate dilithium]",percent Bodipy-positive cells,[4],16.6 ± 4.2%
O=C(N/N=C/c1ccc([N+](=O)[O-])o1)c1ccc(O)cc1 [Nifuroxazide],percent Bodipy-positive cells,,26.9 ± 5%
same,percent Bodipy-positive cells,[6],24.7 ± 9.1%
same,percent Bodipy-positive cells,[4],61.6 ± 7%
C[C@@H]1CN(c2c(F)c(N)c3c(=O)c(C(=O)O)cn(C4CC4)c3c2F)C[C@H](C)N1 [Sparfloxacin],percent Bodipy-positive cells,[6],4.72 ± 1.7%
same,percent Bodipy-positive cells,library stock concentration: 5.1 mM,8.13 ± 0.86%
same,percent Bodipy-positive cells,[4],7.29 ± 2.4%
Cn1c(=O)c2[nH]c(-c3ccc(S(=O)(=O)O)cc3)nc2n(C)c1=O [8-(p-Sulfophenyl)theophylline],percent Bodipy-positive cells,[4],35.7 ± 11%
C[C@@H]1O[C@@H]1P(=O)(O)O [Phosphomycin disodium],percent Bodipy-positive cells,[4],29.2 ± 1.2%
C[C@@H]1O[C@@H]1P(=O)(O)O [Fosfomycin],percent Bodipy-positive cells,[4],25.5 ± 12%
Cc1ccc(S(=O)(=O)NCl)cc1,percent Bodipy-positive cells,[4],29.7 ± 9.3%
O[C@H]1[C@H](O)[C@@H](O)[C@@H]2O[C@@H]2[C@@H]1O (racemic) [Conduritol b epoxide],percent Bodipy-positive cells,library stock concentration: 12.3 mM,10.9 ± 5.5%
CC[C@@H]1Cn2c(c3nc(-c4ccccc4)nc-3n(C)c2=O)N1,percent Bodipy-positive cells,[4],5.34 ± 1.2%
CCOC(=O)c1c(C)[nH]c2ccc3c(c12)CN1CCc2cc(OC)ccc2C1O3 (stereo not drawn),percent Bodipy-positive cells,[4],42.5 ± 5.7%
CCCCCCCC(=O)CC[C@@H]1[C@@H](C/C=C\CCCC(=O)OC(C)C)[C@@H](O)C[C@H]1O [Unoprostone isopropyl ester],percent Bodipy-positive cells,[5],16.6 ± 3.9%
CCCCCCCCCCCCCCCCCCCCCC(=O)NCCS(=O)(=O)O [N-Docosanoyl Taurine],percent Bodipy-positive cells,[5],9.24 ± 4.4%
CCn1cc(C(=O)O)c(=O)c2cc(F)c(N3CCN(C)CC3)cc21 [Pefloxacin Mesylate],percent Bodipy-positive cells,[6],6.57 ± 1.9%
same,percent Bodipy-positive cells,[4],7.47 ± 1.3%
CCn1cc(C(=O)O)c(=O)c2cc(F)c(N3CCN(C)CC3)cc21 [Pefloxacine mesylate],percent Bodipy-positive cells,library stock concentration: 4.7 mM,11.4 ± 5.2%
same,percent Bodipy-positive cells,[7],6.1 ± 0.57%
same,percent Bodipy-positive cells,[4],47.4 ± 13%
CCn1cc(C(=O)O)c(=O)c2cc(F)c(N3CCN(C)CC3)cc21 [Pefloxacin Mesylate Dihydrate],percent Bodipy-positive cells,[6],9.35 ± 3.4%
same,percent Bodipy-positive cells,[4],16.6 ± 0.97%
CCn1cc(C(=O)O)c(=O)c2cc(F)c(N3CCN(C)CC3)cc21,percent Bodipy-positive cells,[4],11.3 ± 6%
CCCCC(=O)Oc1ccccc1C(=O)O [Valeroyl Salicylate],percent Bodipy-positive cells,[5],9.25 ± 3.5%
CC[C@]12CCCN3CCc4c(n(c5ccccc45)C(=O)C1)[C@@H]32 [Eburnamonine (-)],percent Bodipy-positive cells,,27.4 ± 6.4%
CCOC(=O)c1ccc(N2NC(=O)C(=Cc3ccc([N+](=O)[O-])o3)C2=O)cc1,percent Bodipy-positive cells,[1],10.1 ± 1.5%
same,percent Bodipy-positive cells,[2],11.2 ± 4%
same,percent Bodipy-positive cells,[3],8.65 ± 7.4%
same,percent Bodipy-positive cells,[6],27.7 ± 6.8%
same,percent Bodipy-positive cells,[4],25.3% and 8.53%
C[C@@H](Oc1cc(-c2cnn(C3CCNCC3)c2)cnc1N)c1c(Cl)ccc(F)c1Cl,percent Bodipy-positive cells,[6],76.7 ± 18%
same,percent Bodipy-positive cells,[4],97.2 ± 1.4%
CC(N)(C(=O)O)c1ccc(C(=O)O)cc1 (stereo not drawn),percent Bodipy-positive cells,[4],23.4 ± 2%
CC(=O)OCOC(c1ccc2ccccc2c1)P(=O)(OCOC(C)=O)OCOC(C)=O (stereo not drawn),percent Bodipy-positive cells,library stock concentration: 11 mM,23.2 ± 5.4%
CCNC(=O)c1noc(-c2cc(Cl)c(O)cc2O)c1-c1ccc(OC)cc1,percent Bodipy-positive cells,[6],85.04 ± 0.56%
same,percent Bodipy-positive cells,[4],87.5 ± 1.2%
CCN(CC)CCCCNc1ncc2cc(-c3c(Cl)cccc3Cl)c(NC(=O)NC(C)(C)C)nc2n1,percent Bodipy-positive cells,[4],90.8 ± 2.4%
"CN=C(N)NCCC[C@H](N)C(=O)O [L-Ornithine, N5-[imino(methylamino)methyl]-[CAS]]",percent Bodipy-positive cells,[4],12.8 ± 3.1%
OCc1ccccc1,percent Bodipy-positive cells,[4],34.7 ± 8.9%
CNC(=C[N+](=O)[O-])NCCSCc1csc(CN(C)C)n1 [Nizatidine],percent Bodipy-positive cells,,9.4 ± 0.8%
same,percent Bodipy-positive cells,[6],12 ± 5.6%
same,percent Bodipy-positive cells,[7],3.19 ± 0.93%
same,percent Bodipy-positive cells,[4],20.1 ± 4%
CNC(=C[N+](=O)[O-])NCCSCc1csc(CN(C)C)n1,percent Bodipy-positive cells,[4],20 ± 4%
Cc1nc(Nc2n[nH]c3c2CN(C(=O)N[C@H](CN(C)C)c2ccccc2)C3(C)C)c2sccc2n1,percent Bodipy-positive cells,[4],79.5 ± 9.7%
CC(C)CN(C[C@@H](O)[C@H](Cc1ccccc1)NC(=O)O[C@H]1CCOC1)S(=O)(=O)c1ccc(N)cc1 [Amprenavir],percent Bodipy-positive cells,[6],6.91 ± 4.9%
same,percent Bodipy-positive cells,library stock concentration: 4 mM,9.92 ± 3.6%
same,percent Bodipy-positive cells,[4],15.8 ± 3.2%

# A portion from the list above, as a working copy:
structure (smiles),measurement,setting,value
CCn1cc(C(=O)O)c(=O)c2cc(F)c(N3CCN(C)CC3)cc21 [Pefloxacine mesylate],percent Bodipy-positive cells,[4],47.4 ± 13%
CCn1cc(C(=O)O)c(=O)c2cc(F)c(N3CCN(C)CC3)cc21 [Pefloxacin Mesylate Dihydrate],percent Bodipy-positive cells,[6],9.35 ± 3.4%
same,percent Bodipy-positive cells,[4],16.6 ± 0.97%
CCn1cc(C(=O)O)c(=O)c2cc(F)c(N3CCN(C)CC3)cc21,percent Bodipy-positive cells,[4],11.3 ± 6%
